## Screening data, single-dose tests

The chains behind the UniProt entries cited, without tags or fusion partners. Residues count along the entry.
UniProt Q4DA54, 1-478: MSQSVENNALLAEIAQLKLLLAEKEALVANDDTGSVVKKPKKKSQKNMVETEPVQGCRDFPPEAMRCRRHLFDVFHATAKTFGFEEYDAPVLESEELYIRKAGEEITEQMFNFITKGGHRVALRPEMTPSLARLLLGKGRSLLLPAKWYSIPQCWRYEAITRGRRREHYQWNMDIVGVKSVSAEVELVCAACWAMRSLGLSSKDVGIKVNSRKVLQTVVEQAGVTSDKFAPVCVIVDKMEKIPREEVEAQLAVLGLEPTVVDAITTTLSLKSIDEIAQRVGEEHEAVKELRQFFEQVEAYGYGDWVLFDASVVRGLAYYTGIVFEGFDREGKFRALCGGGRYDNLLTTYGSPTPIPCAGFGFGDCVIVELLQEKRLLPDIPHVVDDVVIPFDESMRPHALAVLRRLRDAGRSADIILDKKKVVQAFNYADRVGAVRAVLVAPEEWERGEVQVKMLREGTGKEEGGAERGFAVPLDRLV

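Histidine-tRNA ligase, Trypanosoma cruzi CL Brener (UniProt Q4DA54). Enzyme assay of histidyl-tRNA synthetase; the read-out is not stated. Compounds at 30 µM. Higher reads as stronger inhibition (inferred: compounds with an IC50 in retests scored well above the rest). Of about 69,000 compounds tested this way, about 31 (0.045%) reached 50% or more in at least one test.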

Values are the deposited “Percent Effect”, in %. How 0% and 100% were set is not recorded. Most values in the screen are low, and negative values occur. This is an unselected part of the compounds tested.

structure | Percent Effect
O=C(c1ccc2c(c1)COC2)N1CCCC(n2cncn2)C1 (centres undefined) | 9.827%
Cc1cc(NCc2ccc(C#N)cc2)n2nc(C)cc2n1 | 1.212%
CC(C)=CCCC1(C)CCC(=O)N(CCc2nc(N)cc(O)n2)C1 (centres undefined) | 3.004%
CCNC(=O)CN(CC)Cc1nc2c(F)cccc2n1CC | -0.8403%
OC(CN1CCC(c2ccn[nH]2)CC1)c1cccc(F)c1 (centres undefined) | 4.511%
COc1ccc(S(=O)(=O)N2CCC(O)(CN(C)C)C2)cc1 (centres undefined) | 0%
Cc1occc1CNC(=O)N1CCC(Cc2cnn(C)c2)C1 (centres undefined) | 2.941%
Cc1ccccc1CN1C[C@@H]2COC[C@]2(CNC(=O)C2CCC2)C1 | 2.513%
CCc1ccc2nc(C)cc(C(=O)NC3CCCCNC3=O)c2c1 (centres undefined) | 4.938%
Cc1nsc(NC(=O)NC2(CN3CCOCC3)CCCCC2)n1 | 5.202%
O=C(NC1CC1)c1nc2c(s1)CCCN2c1ccccc1 | 3.279%
O=C(Nc1cccnc1)[C@H]1COC[C@H]2CN(C3CCCC3)C[C@H]21 | -1.604%
Cc1nc(NCCN2CCCC2=O)cc(C2CN(C)CCO2)n1 (centres undefined) | 3.714%
CCN(C)c1ncnc2c1CCN(CC1CCOC1)CC2 (centres undefined) | 3.061%
COc1cccc(SCC(=O)N2CCC(N3CCCC(O)C3)CC2)c1 (centres undefined) | 1.235%
Cn1ccnc1CN(CCO)C(=O)c1cc2ccccc2o1 | -0.5236%
CCC1c2ccc(C)n2CCN1C(=O)Cn1cnc2sc(C)cc2c1=O (centres undefined) | 6.818%
O=C(C1CCOC1)N1CCN(Cc2ccncc2)c2ncccc2C1 (centres undefined) | 7.619%
CC(Cn1cncn1)NC(=O)N1CC2(CCCC2)c2ccccc21 (centres undefined) | 2.762%
Cn1cc(CN2CCC3(CCCN(C(=O)c4cscn4)C3)C2)cn1 (centres undefined) | -0.8772%
Cc1nc(C2CCCN(C(=O)CCCOc3cccc(F)c3)C2)no1 (centres undefined) | 7.514%
NC(=O)CS(=O)(=O)Cc1ccc(F)cc1 | 10.83%
CCc1nnc(C(C)N2CCCN(C(=O)Oc3ccccc3)CC2)o1 (centres undefined) | 10.87%
O=C(O)[C@@H]1CN(CC2CCC2)C[C@H]1c1ccc(F)cc1 | 2.128%
C1CCC(CNC2CCCN(Cc3noc(C4CC4)n3)C2)CC1 (centres undefined) | 14.36%
CC(C)COC(C)C(=O)NCc1ccccc1 (centres undefined) | 4.373%
C[C@@H]1CN(c2ccc(C#N)cn2)CC[C@@]1(O)C1CCOCC1 | 6.03%
O=c1[nH]nc2nc(N3CCSCC3)ccn12 | 8.293%
c1ccc(CN2CCC(CNc3ncnc4c3CCNCC4)CC2)cc1 | 6%
Cc1cccc(S(=O)(=O)N2CCCc3c(c(=O)n(C)n3C)C2)c1 | 4.902%
COc1ccc(OC)c(C(O)CNC(=O)Nc2cccnc2OC)c1 (centres undefined) | 6.857%
CN1CCCc2cc(-c3cncn3CCNC3CCS(=O)(=O)C3)ccc21 (centres undefined) | 9.231%
Cn1cnc2c1C(COCC1CCOCC1)CN(C(=O)C1CC=CC1)C2 (centres undefined) | 6.897%
CCc1ccc(C(=O)N2CCN(CC(C)O)CC2)o1 (centres undefined) | 0.3802%
Cc1ccc(-c2ncc(CN3CCOC(c4ccco4)C3)s2)o1 (centres undefined) | 4.046%
COCC(=O)N1C[C@@H](c2cccc(OC)c2)[C@@]2(CCCCC(=O)N2)C1 | 4.651%
COc1cc(N2CCCC3(CCN(c4cccnc4)C3=O)C2)ncn1 (centres undefined) | 9.278%
Cn1c(C(F)(F)F)nn(CCNC(=O)c2ccccn2)c1=O | 5.102%
CCn1cc(CN(C)C(=O)c2cc(C(F)(F)F)n(C)n2)cn1 | 1.242%
Cc1ccccc1CN(CCN(C)C)Cc1ccc(C(=O)O)cc1 | 2.4%
Cc1cc(C)n(C2CN(CCC(N)=O)C2)n1 | 10.05%
Cc1[nH]ccc1C(=O)Nc1cccc(CN2CCC(O)CC2)c1 | -2.174%
CCOCC(=O)N1CCC(CSCc2ccco2)CC1 | 4.444%
CCCc1cc(C(=O)N(C)Cc2cnn(-c3cccc(OC)c3)c2)[nH]n1 | 7.792%
Cc1nc(O)cc(C2CCN(C(=O)C(C)Cn3nc(C)nc3C)CC2)n1 (centres undefined) | 0%
CC1CCCCN1C1CN(c2ccnc(C(=O)NCc3ccco3)c2)C1 (centres undefined) | 5.195%
Cc1cc(C(=O)N2CCCC(c3nncn3C)C2)no1 (centres undefined) | 10.89%
CCc1oc(C(=O)N(C)Cc2nonc2C)cc1CN(CC)CC | 0.9901%
CCC[C@H]1CN(CCS(C)(=O)=O)C[C@@H]1NC(=O)c1cc[nH]n1 | 6.186%
O=C(c1cnn2cc(CCO)cnc12)N1CCOC(C(F)(F)F)C1 (centres undefined) | 1.478%
CN(C)CCN1CCCC12CCN(C(=O)c1cccn1C)CC2 | -1.639%
Cc1ccc(O)c(C(=O)N2CCOCC2c2c(C)nn(C)c2C)c1 (centres undefined) | 2.857%
Cc1ccc(CCC(=O)N2CCCC(c3cc(C(N)=O)[nH]n3)C2)cc1 (centres undefined) | 7.267%
CC(C)N1CCCC(C(=O)N2CCN(c3cccc(C(=O)O)c3)CC2)C1 (centres undefined) | 0.4975%
Cc1cccc(CN2CC[C@@H]3[C@@H]2CCN3C(=O)c2cc(C)on2)n1 | 2.439%
Cn1cc(N2CC3(CCN(Cc4cccnc4)CC3)OCC2=O)cn1 | 9.244%
Cc1cnn(CCNCc2csc(COc3ccccc3)n2)c1 | 9.845%
Cc1nc(CN2CCCC(NCCCc3ccccc3)C2)no1 (centres undefined) | 10.86%
COC(=O)c1ccc(OC)c(Cn2cc(N)cn2)c1 | 9.845%
Cc1ccc2nc(CNc3ccccc3C(=O)NC3CC3)cn2c1 | 12.95%
CCS(=O)(=O)N1CCO[C@H]2[C@H](OCCCn3cccn3)CC[C@@H]21 | 2.703%
O=C(c1ccc[nH]1)N1C[C@H]2CC[C@@H]1CN(c1ncccn1)C2 | 1.674%
O=C(c1cccn1Cc1cccs1)N1CCCC1Cn1cccn1 (centres undefined) | -3.03%
CN(C)C[C@H]1C[C@@H](CO)CN(C(=O)c2cc(=O)[nH]c3cc(F)ccc23)C1 | 4.372%
CCOC(=O)[C@]12CCCN(Cc3ccco3)C[C@H]1CN(CCN(C)C)C2 | -1.087%
CCOc1ccccc1CCNC(=O)NCC(O)c1ccsc1 (centres undefined) | 3.448%
CN1CCC(c2cccc(NCc3nccn3C)n2)CC1 | 3.448%
CSc1ccc(-c2nc(CN3CCC(CN)C3)c(C)o2)cc1 (centres undefined) | 0.8333%
O=C(C1CC(F)(F)C1)N1CC[C@H]2OCC[C@@]2(COCC2CC2)C1 | 7.362%
CC(C)c1nnc(CN2CCc3ccc(S(N)(=O)=O)cc32)o1 | -2.762%
CCOc1ccc(NC(=O)Cc2cc(C)[nH]n2)cc1CO | 1.911%
CC(=O)N1CCCN(C(=O)c2oc(Br)cc2C)CC1 | -5%
O=C(NCc1csc2ccc(Cl)cc12)c1cc2n(n1)CCNC2 | 3.483%
c1ccc2c(c1)COC1(CCCC1)N2 | 0%
CN(C)CCN1CCO[C@@H]2CN(C(=O)c3cccs3)CC[C@@H]2C1 | 1.657%
CC(=O)NCCC(=O)NC(C)c1sc(-c2ccccc2F)nc1C (centres undefined) | 10.5%
Cc1csc(CNc2cnn(CC(F)(F)F)c2)n1 | 3.415%
CC(C(=O)N1CCCN(Cc2ccc(C#N)cc2)CC1)n1cccn1 (centres undefined) | 8.284%
Cc1ccc(CC(=O)N2CCN(CC(C)O)CC2)cn1 (centres undefined) | 2.959%
Cc1cc(C(=O)N[C@H](C)c2onc(-c3cccnc3)c2C(=O)O)c(C)o1 | 3.483%
O=C(NCC1CC1)C1CN(Cc2cccs2)Cc2ccnn2C1 (centres undefined) | 1.905%
CC(C)n1c(=O)nc2n1C(=O)N(c1ccc(F)cc1)C2 | -1.087%
Cc1cccc(N2CCN(C(=O)CCc3ccsc3)C(C)C2)n1 (centres undefined) | 9.756%
Cc1cc(C)n(CCC(=O)N2CCCC(c3cc(C(N)=O)[nH]n3)C2)n1 (centres undefined) | 2.616%
O=C(c1cc(-c2ccccc2)nc2onc(C3CC3)c12)N1CC[C@H](O)C1 | 7.879%
OC(COc1ccccc1)CN1CCc2c(ncn2C2CC2)C1 (centres undefined) | 4.151%
Cn1cc(C[C@H]2[C@H](O)CCN2CC2CC2)cn1 | 0.5525%
COC(=O)c1ccc(NC(=O)CCc2ccco2)cc1 | -2.679%
Cc1nnc([C@@H]2CC[C@@H]3[C@@H](CCN3C3CCC3)O2)o1 | 2.299%
Cc1noc([C@@H]2C[C@@H]3CCN(CC4CCOCC4)C[C@H]3O2)n1 | 2.186%

For reference, 11 entries once more:

For O=C(NCC1CC1)C1CN(Cc2cccs2)Cc2ccnn2C1 (centres undefined) the result was 1.905%.
For O=C(c1ccc[nH]1)N1C[C@H]2CC[C@@H]1CN(c1ncccn1)C2 the result was 1.674%.
For CC(=O)NCCC(=O)NC(C)c1sc(-c2ccccc2F)nc1C (centres undefined) the result was 10.5%.
For CN(C)C[C@H]1C[C@@H](CO)CN(C(=O)c2cc(=O)[nH]c3cc(F)ccc23)C1 the result was 4.372%.
For CCc1oc(C(=O)N(C)Cc2nonc2C)cc1CN(CC)CC the result was 0.9901%.
For Cc1nnc([C@@H]2CC[C@@H]3[C@@H](CCN3C3CCC3)O2)o1 the result was 2.299%.
For C1CCC(CNC2CCCN(Cc3noc(C4CC4)n3)C2)CC1 (centres undefined) the result was 14.36%.
For Cc1occc1CNC(=O)N1CCC(Cc2cnn(C)c2)C1 (centres undefined) the result was 2.941%.
For CC(C)COC(C)C(=O)NCc1ccccc1 (centres undefined) the result was 4.373%.
For Cc1cccc(N2CCN(C(=O)CCc3ccsc3)C(C)C2)n1 (centres undefined) the result was 9.756%.
For Cc1ccc(O)c(C(=O)N2CCOCC2c2c(C)nn(C)c2C)c1 (centres undefined) the result was 2.857%.

Data taken from ChEMBL document CHEMBL3988442, “University of Dundee, Small-Polar-MMV Screening Library” (2021).